Data reported in paper PMC11197270.
No constants are given. Whether binding was seen depends on the method and setting. Binding seen in cells or lysates may run through a third protein. Some binding calls cover weakened binding; strength is not graded here.

The chains behind the UniProt entries cited, without tags or fusion partners.
UniProt P62258: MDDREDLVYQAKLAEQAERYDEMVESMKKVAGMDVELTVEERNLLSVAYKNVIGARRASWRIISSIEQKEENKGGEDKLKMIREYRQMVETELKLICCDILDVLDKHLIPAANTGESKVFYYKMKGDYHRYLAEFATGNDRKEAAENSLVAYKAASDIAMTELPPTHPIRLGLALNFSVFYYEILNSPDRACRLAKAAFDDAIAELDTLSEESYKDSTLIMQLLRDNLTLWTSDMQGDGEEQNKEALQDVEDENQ

Biological target: T1, RUFY3 protein (human (all cell lines of the paper are human; the line of the co-IP is not stated)) (UniProt Q7L099)
T1 sequence: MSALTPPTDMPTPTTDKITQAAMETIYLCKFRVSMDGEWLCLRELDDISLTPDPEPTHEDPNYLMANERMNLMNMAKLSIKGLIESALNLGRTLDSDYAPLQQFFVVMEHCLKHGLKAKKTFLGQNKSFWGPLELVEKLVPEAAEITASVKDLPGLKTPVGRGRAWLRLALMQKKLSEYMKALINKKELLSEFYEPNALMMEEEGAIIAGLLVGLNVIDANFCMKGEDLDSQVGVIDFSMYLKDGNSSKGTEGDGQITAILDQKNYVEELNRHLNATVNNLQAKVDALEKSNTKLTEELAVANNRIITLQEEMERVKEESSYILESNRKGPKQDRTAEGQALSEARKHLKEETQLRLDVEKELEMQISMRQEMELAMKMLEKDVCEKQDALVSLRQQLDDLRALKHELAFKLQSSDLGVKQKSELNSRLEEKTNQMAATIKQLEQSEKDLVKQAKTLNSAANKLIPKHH
Assay: co-IP; Co-IP kit (BersinBio Bes3011); antibody (5 ug) mixed with cell lysates, 4 °C overnight, then protein A/G magnetic beads 3 h at room temperature; eluate analysed by Western blot; cell line not stated

binding: binds
Substance: YWHAE protein (from UniProt P62258 1-255)
